Measured values published in paper PMC9475462.
These are yes or no findings as the source states them, for the method shown. Binding seen in cells or lysates may run through a third protein. A yes stands for co-enrichment or nearness to the bait. Other partners may have been found. Tags and fused reporters may be left off the sequences shown.

Amino acid sequences for entries named in this document (tags omitted).
UniProt P14618: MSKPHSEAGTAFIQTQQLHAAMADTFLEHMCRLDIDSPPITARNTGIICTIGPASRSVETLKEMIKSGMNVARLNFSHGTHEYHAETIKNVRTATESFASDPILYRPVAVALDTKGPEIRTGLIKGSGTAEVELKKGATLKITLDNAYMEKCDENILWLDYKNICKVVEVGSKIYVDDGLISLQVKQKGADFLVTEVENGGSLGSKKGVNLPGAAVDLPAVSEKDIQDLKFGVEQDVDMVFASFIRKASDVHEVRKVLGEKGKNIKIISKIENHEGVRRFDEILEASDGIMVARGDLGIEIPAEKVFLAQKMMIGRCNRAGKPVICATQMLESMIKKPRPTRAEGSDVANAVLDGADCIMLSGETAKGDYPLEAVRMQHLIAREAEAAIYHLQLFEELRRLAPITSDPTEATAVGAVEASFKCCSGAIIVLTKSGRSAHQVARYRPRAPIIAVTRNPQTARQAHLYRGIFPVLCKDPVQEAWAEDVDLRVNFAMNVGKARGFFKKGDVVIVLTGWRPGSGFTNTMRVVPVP

Target: T1, FLAG-ARHGAP24 (Rho GTPase activating protein 24) (UniProt Q8N264)
T1 sequence: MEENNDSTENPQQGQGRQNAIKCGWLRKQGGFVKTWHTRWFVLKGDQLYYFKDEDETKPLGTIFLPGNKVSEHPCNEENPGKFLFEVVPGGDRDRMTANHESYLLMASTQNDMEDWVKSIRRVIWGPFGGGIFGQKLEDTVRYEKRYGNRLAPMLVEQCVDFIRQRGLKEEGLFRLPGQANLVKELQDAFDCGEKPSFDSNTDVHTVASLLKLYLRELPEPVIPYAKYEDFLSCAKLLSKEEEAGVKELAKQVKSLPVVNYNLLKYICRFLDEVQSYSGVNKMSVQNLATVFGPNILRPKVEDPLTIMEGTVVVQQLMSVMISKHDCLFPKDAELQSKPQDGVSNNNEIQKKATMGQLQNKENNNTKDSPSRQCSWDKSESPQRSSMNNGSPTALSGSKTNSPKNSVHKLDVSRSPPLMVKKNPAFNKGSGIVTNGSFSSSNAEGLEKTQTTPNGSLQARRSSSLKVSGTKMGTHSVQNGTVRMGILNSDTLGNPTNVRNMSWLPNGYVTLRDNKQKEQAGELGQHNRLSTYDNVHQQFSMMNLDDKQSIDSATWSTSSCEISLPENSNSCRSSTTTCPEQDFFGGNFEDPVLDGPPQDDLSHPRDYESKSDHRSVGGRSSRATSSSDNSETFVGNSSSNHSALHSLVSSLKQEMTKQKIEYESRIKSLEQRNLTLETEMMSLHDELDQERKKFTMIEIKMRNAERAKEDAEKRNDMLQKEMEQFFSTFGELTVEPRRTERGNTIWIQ
Assay: affinity purification with mass spectrometry; HCCLM3 cells transfected with FLAG-ARHGAP24, immunoprecipitated with anti-FLAG antibody; IgG as non-specific control; LC-MS/MS

pyruvate kinase M2 (PKM2), in HCCLM3 cells (from UniProt P14618 1-531)
binding: binds
